Results are given in words; binding and its absence hold for the method and conditions named. In cells and extracts the contact can be indirect. Some binding calls cover weakened binding; strength is not graded here. Sequences can lack the tags named with a protein.
Biological target: mCherry-4.1G (UniProt O43491)
Experiment: co-IP; extracts of co-transfected HEK293 cells in IP Lysis/Wash Buffer (0.025 M Tris, 0.15 M NaCl, 0.001 M EDTA, 1% NP40, 5% glycerol, pH 7.4); RFP-Trap (anti-mCherry) magnetic agarose beads overnight at 4°C; blots with anti-GFP and anti-mCherry

Chains of the proteins cited; added tags and fusions are not shown.
UniProt O43491: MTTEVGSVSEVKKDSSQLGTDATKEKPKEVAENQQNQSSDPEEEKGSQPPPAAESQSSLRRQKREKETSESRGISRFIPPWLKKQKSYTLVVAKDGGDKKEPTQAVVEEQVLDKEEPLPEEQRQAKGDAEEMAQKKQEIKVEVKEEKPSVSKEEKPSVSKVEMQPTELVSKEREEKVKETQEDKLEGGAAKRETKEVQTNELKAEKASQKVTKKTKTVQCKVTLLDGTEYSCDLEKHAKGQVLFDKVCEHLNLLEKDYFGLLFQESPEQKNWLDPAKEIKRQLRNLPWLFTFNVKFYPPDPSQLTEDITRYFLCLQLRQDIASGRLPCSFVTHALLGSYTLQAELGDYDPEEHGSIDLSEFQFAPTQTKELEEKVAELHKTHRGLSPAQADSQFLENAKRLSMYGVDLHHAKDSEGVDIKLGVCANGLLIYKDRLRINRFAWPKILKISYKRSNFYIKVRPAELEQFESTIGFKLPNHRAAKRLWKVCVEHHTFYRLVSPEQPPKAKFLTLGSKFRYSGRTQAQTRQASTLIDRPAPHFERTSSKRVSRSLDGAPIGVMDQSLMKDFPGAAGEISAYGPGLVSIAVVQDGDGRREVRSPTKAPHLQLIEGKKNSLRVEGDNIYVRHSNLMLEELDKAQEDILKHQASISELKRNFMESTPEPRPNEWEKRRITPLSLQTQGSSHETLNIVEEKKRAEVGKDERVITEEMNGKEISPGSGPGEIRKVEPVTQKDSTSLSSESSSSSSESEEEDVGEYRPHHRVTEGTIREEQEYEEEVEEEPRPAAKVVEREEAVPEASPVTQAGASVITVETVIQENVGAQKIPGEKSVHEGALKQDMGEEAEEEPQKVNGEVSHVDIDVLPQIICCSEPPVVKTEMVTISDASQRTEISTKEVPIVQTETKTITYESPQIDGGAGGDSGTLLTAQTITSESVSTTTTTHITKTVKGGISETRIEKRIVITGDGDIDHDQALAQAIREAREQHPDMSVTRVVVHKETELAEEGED

Row | Binder | binding
1 | TMEM24-eGFP (protein, UniProt O14523 1-706) MDPGWGQRDVGWAALLILFAASLLTVFAWLLQYARGLWLARARGDRGPGPALAGEPAGSLRELGVWRSLLRLRATRAGAAEEPGVRGLLASLFAFKSFRENWQRAWVRALNEQACRNGSSIQIAFEEVPQLPPRASISHVTCVDQSEHTMVLRCQLSAEEVRFPVSVTQQSPAAVSMETYHVTLTLPPTQLEVNLEEIPGEGLLISWAFTDRPDLSLTVLPKLQARERGEEQVELSTIEELIKDAIVSTQPAMMVNLRACSAPGGLVPSEKPPMMPQAQPAIPRPNRLFLRQLRASHLGNELEGTEELCCVAELDNPMQQKWTKPARAGSEVEWTEDLALDLGPQSRELTLKVLRSSSCGDTELLGQATLPVGSPSRPLSRRQLCPLTPGPGKALGPAATMAVELHYEEGSPRNLGTPTSSTPRPSITPTKKIELDRTIMPDGTIVTTVTTVQSRPRIDGKLDSPSRSPSKVEVTEKTTTVLSESSGPSNTSHSSSRDSHLSNGLDPVAETAIRQLTEPSGRVAKKTPTKRSTLIISGVSKVPIAQDELALSLGYAASLEASVQDDAGTSGGPSSPPSDPPAMSPGPLDALSSPTSVQEADETTRSDISERPSVDDIESETGSTGALETRSLKDHKVSFLRSGTKLIFRRRPRQKEAGLSQSHDDLSNATATPSVRKKAGSFSRRLIKRFSFKSKPKANGNPSPQL | binds
2 | TMEM24(I536A)-eGFP (protein, UniProt O14523 1-706) MDPGWGQRDVGWAALLILFAASLLTVFAWLLQYARGLWLARARGDRGPGPALAGEPAGSLRELGVWRSLLRLRATRAGAAEEPGVRGLLASLFAFKSFRENWQRAWVRALNEQACRNGSSIQIAFEEVPQLPPRASISHVTCVDQSEHTMVLRCQLSAEEVRFPVSVTQQSPAAVSMETYHVTLTLPPTQLEVNLEEIPGEGLLISWAFTDRPDLSLTVLPKLQARERGEEQVELSTIEELIKDAIVSTQPAMMVNLRACSAPGGLVPSEKPPMMPQAQPAIPRPNRLFLRQLRASHLGNELEGTEELCCVAELDNPMQQKWTKPARAGSEVEWTEDLALDLGPQSRELTLKVLRSSSCGDTELLGQATLPVGSPSRPLSRRQLCPLTPGPGKALGPAATMAVELHYEEGSPRNLGTPTSSTPRPSITPTKKIELDRTIMPDGTIVTTVTTVQSRPRIDGKLDSPSRSPSKVEVTEKTTTVLSESSGPSNTSHSSSRDSHLSNGLDPVAETAIRQLTEPSGRVAKKTPTKRSTLIASGVSKVPIAQDELALSLGYAASLEASVQDDAGTSGGPSSPPSDPPAMSPGPLDALSSPTSVQEADETTRSDISERPSVDDIESETGSTGALETRSLKDHKVSFLRSGTKLIFRRRPRQKEAGLSQSHDDLSNATATPSVRKKAGSFSRRLIKRFSFKSKPKANGNPSPQL | no binding
